Measurements reported in PubChem BioAssay AID686938 (Drosophila RNAi Screening Center, 2013).
In all, the deposit lists about 23,000 reagents; below is a random part of those that have a named target and a result. In the full data, 75 (0.33%) were called active. 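Raw plate signals without normalisation; calls rest on plate z-scores that were not deposited; ratio present for only 364 wells.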 Entries without a mark were called inactive. Not given: the dose of the treatment.

Assay: 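Looking for CRAC channel components and the factors controlling them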 (primary screen)
Cell system: Drosophila S2R+ cells
Reagent: long dsRNA against Drosophila genes, about 0.25 µg dsRNA per well, roughly 10,000 cells
Timing: 5 days of knock-down before the calcium assay
Challenge: thapsigargin (SERCA pump blocker) to empty calcium stores; entry signal taken 4 min after adding it
Detection: 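Duplicate raw fluo-4 intensities per well from a plate reader, at rest and four minutes after thapsigargin emptied calcium stores; entry-to-rest ratio filled for only some wells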
Scale: calcium entry signal: higher = stronger calcium signal after store depletion; entry to resting ratio: higher = more calcium entry relative to resting level; resting calcium signal: higher = higher resting calcium signal
Units: calcium entry signal in fluorescence units; resting calcium signal in fluorescence units
Rule for the call: 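Hit if the duplicate-averaged plate z-score for entry over resting signal is under −3; wells with weak total dye signal (Fmax z < −2) or more than 5 off-targets removed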
Meaning of the calls: active = strongly reduced calcium entry; inactive = no strong reduction

The first 3 records, to show the layout:
| gene | dsRNA | calcium entry signal, replicate 1 | calcium entry signal, replicate 2 | entry to resting ratio | resting calcium signal, replicate 1 | resting calcium signal, replicate 2 |
| --- | --- | --- | --- | --- | --- | --- |
| Cyp6a23 | DRSC07383 | 3.05e7 | 3.57e7 | – | 1.59e7 | 1.76e7 |
| dpr19 | DRSC02237 | 3.53e7 | 4.91e7 | – | 1.68e7 | 2.01e7 |
| tbrd-2 | DRSC07020 | 3.19e7 | 3.04e7 | – | 1.42e7 | 1.48e7 |

The list itself, from the start:
| gene | dsRNA | calcium entry signal, replicate 1 | calcium entry signal, replicate 2 | entry to resting ratio | resting calcium signal, replicate 1 | resting calcium signal, replicate 2 |
| --- | --- | --- | --- | --- | --- | --- |
| Cyp6a23 | DRSC07383 | 3.05e7 | 3.57e7 | – | 1.59e7 | 1.76e7 |
| dpr19 | DRSC02237 | 3.53e7 | 4.91e7 | – | 1.68e7 | 2.01e7 |
| tbrd-2 | DRSC07020 | 3.19e7 | 3.04e7 | – | 1.42e7 | 1.48e7 |
| CG13073 | DRSC09956 | 3.34e7 | 4.25e7 | – | 1.71e7 | 1.59e7 |
| CG32812 | DRSC18478 | 4.02e7 | 3.77e7 | 2.3 | 1.78e7 | 1.65e7 |
| CG9777 | DRSC20208 | 2.85e7 | 2.92e7 | – | 1.50e7 | 1.31e7 |
| Gas41 | DRSC03156 | 3.81e7 | – | – | 2.33e7 | – |
| CG11638 | DRSC18167 | 3.74e7 | 5.42e7 | 2.3 | 1.63e7 | 2.10e7 |
| CG11638 | DRSC18640 | 4.00e7 | 4.92e7 | 2.1 | 1.92e7 | 1.93e7 |
| CG31068 | DRSC13820 | 3.26e7 | 4.49e7 | – | 1.67e7 | 2.14e7 |
| CG11588 | DRSC09145 | 5.29e7 | 4.88e7 | – | 2.76e7 | 2.35e7 |
| CG11588 | DRSC09846 | 2.83e7 | 3.36e7 | – | 1.42e7 | 1.41e7 |
| Pcmt | DRSC12363 | 3.83e7 | 2.66e7 | – | 1.78e7 | 1.24e7 |
| VhaPPA1-1 | DRSC16170 | 4.79e7 | 3.69e7 | – | 2.87e7 | 2.19e7 |
| CG12106 | DRSC17805 | 3.04e7 | 3.18e7 | – | 1.50e7 | 1.52e7 |
| CG31960 | DRSC00281 | 3.77e7 | 3.86e7 | – | 1.78e7 | 1.69e7 |
| CG11790 | DRSC14390 | 4.66e7 | 4.66e7 | – | 1.93e7 | 1.77e7 |
| CG32071 | DRSC22298 | 2.99e7 | 4.85e7 | – | 1.50e7 | 2.72e7 |
| CG8036 | DRSC16366 | 4.06e7 | 2.76e7 | – | 2.03e7 | 1.34e7 |
| CG31804 | DRSC22728 | 3.25e7 | 4.15e7 | – | 1.75e7 | 1.93e7 |
| CR12842 | DRSC06188 | 3.85e7 | 4.21e7 | – | 1.76e7 | 1.82e7 |
| CG17343 | DRSC02606 | 4.12e7 | 5.02e7 | – | 1.97e7 | 2.02e7 |
| CG17343 | DRSC22807 | 3.50e7 | 3.82e7 | – | 1.69e7 | 1.90e7 |
| por | DRSC20362 | 3.99e7 | 3.28e7 | – | 1.92e7 | 1.51e7 |
